# Values quoted from earlier work, collected in patent US20190111137A1, “METHODS FOR ANTAGONISTS OF A NON-SELECTIVE CATION CHANNEL IN NEURAL CELLS” (University of Maryland, Baltimore, priority 2007, published 2019).
# At least one structure is not confirmed: it was looked up by name or label, or the drawing left a doubt.
# Test system: SCI
# Details: rat, in vivo; cited from earlier work
smiles,measurement,value
C[C@H]1C[C@@H]2[C@H]([C@@H](O)C[C@@]3(C)[C@H]2CC[C@]3(O)C(=O)CO)[C@@]2(C)C=CC(=O)C=C12 [Methylprednisolone],development of PHN,does not alter the development of PHN
same,edema,improves edema
